# From publication PMC5996148
# The other results are listed elsewhere or left out.
# Assays:
# Experiment in all cases: protein microarray (ProtoArray v5.0), streptavidin-Alexa Fluor 647
# Settings in all cases: 3'-biotin; 20 mM Tris (pH 7.5), 5 mM MgCl2, 100 mM KCl, 0.1% Tween-20, A/T-rich and random oligonucleotide blockers; temperature not stated; high values mean tight binding
# [1] = test system: cDNA clone MGC:110973 IMAGE:6156156 (human)
# [2] = test system: cDNA clone MGC:12418 IMAGE:3934658, complete cds (human)
# [3] = test system: cDNA clone MGC:15478 IMAGE:2967661, complete cds (human)
# [4] = test system: cDNA clone MGC:16743 IMAGE:4130428 (human)
# [5] = test system: cDNA clone MGC:17055 IMAGE:4338834 (human)
# [6] = test system: cDNA clone MGC:23693 IMAGE:4767650 (human)
# [7] = test system: cDNA clone MGC:25008 IMAGE:4453355, complete cds (human)
# [8] = test system: cDNA clone MGC:31936 IMAGE:4765518, complete cds (human)
# [9] = test system: cDNA clone MGC:32654 IMAGE:4701898, complete cds (human)
# [10] = test system: cDNA clone MGC:34832 IMAGE:5203730 (human)
sequence,measurement,setting,value
GGGGACAGGGGTATGGGGAGGGG [G4-3 biotinylated (CtG)],binding signal,[1],-0.32 z-score
same,binding signal,[2],-0.327 z-score
same,binding signal,[3],-0.334 z-score
same,binding signal,[4],-0.337 z-score
same,binding signal,[5],-0.332 z-score
same,binding signal,[6],-0.324 z-score
same,binding signal,[7],-0.337 z-score
same,binding signal,[8],-0.332 z-score
same,binding signal,[9],-0.336 z-score
same,binding signal,[10],-0.32 z-score
